Taken from: PubChem BioAssay AID602196 (INSERM, 2012)

Aim: 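Modifiers of cisplatin sensitivity in A549 cells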
Cells: human A549 lung cancer cells
Reagent: siRNA pair against human genes
Duration: 48 h transfection before cisplatin; time from cisplatin to read-out not stated
Challenge: cisplatin at a dose killing half of control-siRNA cells; exact dose and duration not given
Detection: 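Shift in cisplatin death relative to control siRNA, from -50 (all cells die) to +50 (no cells die); siRNAs harmful on their own scored 0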
Reading the numbers: two-siRNA summed score (-2 to +2): higher = both siRNAs protect from cisplatin killing; -2 means both sensitise; mean protection from cisplatin (shift in death) and protection from cisplatin (shift in death), siRNA C: higher = protection from cisplatin killing
Hit rule: 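siRNAs harmful alone (LDH or WST-1) get 0; others get +1 for less and -1 for more cisplatin killing; genes are active when the two siRNAs give the same sign, summing to ±2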
Meaning of the calls: active = both siRNAs shift cisplatin killing the same way; inactive = no consistent shift, or siRNA harmful alone
Shown is an unselected part of about 23,000 reagents tested. Over the whole deposit, 455 (2%) are marked active. 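Active includes both protection and sensitisation; some change values fall well beyond the stated -50 to +50 range.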 Reagents against one gene are numbered here. Not all columns of the deposit are shown. The record does not give: the amount of reagent.

no.	gene	reagent	two-siRNA summed score (-2 to +2)	mean protection from cisplatin (shift in death) (%)	protection from cisplatin (shift in death), siRNA C (%)	outcome
1	CCNA2	1	0	3.4	-2	inactive
2	CREB3L2	1	0	4.3	1.6	inactive
3	ALG14	1	0	-0.9	5.8	inactive
4	LOC441905	1	0	4.1	12.4	inactive
5	DPP7	1	0	4.4	-5.2	inactive
6	LILRB3	1	-1	-24	-23.8	inactive
7	SORD	1	0	-12.8	-10.6	inactive
8	LOC342853	1	1	12.8	14.2	inactive
9	CD24	1	0	10.1	9.6	inactive
10	LRCH2	1	0	-1	-2	inactive
11	RUNX2	1	0	4.5	-6.1	inactive
12	CCDC68	1	0	-0.5	-4.5	inactive
13	LINC02873	1	0	-9.1	-4.6	inactive
14	ATG3	1	1	4.8	12.8	inactive
15	RBM48	1	0	5.8	-2.9	inactive
16	GABBR2	1	0	1.5	-9.6	inactive
17	RGR	1	0	-0.4	7.6	inactive
18	KLHL8	1	0	3.3	7.4	inactive
19	LOC399737	1	1	7.8	24.5	inactive
20	TSPYL6	1	0	1.3	1	inactive
21	FLJ45949	1	0	8.5	8.2	inactive
22	GFRA1	1	1	21.1	20	inactive
23	WFDC8	1	0	10.3	-0.8	inactive
24	TNMD	1	0	-0.6	-2.4	inactive
25	LRRC23	1	0	3.5	6.2	inactive
26	CHST12	1	0	-9.9	-20.4	inactive
27	PAX5	1	0	1.6	-5.1	inactive
28	TIRAP	1	0	6.1	6.3	inactive
29	DIP2C	1	1	12.8	18.2	inactive
30	LOC441971	1	0	5.9	11.4	inactive
31	RILPL2	1	0	8.9	14.2	inactive
32	SLC27A2	1	0	9.3	16.7	inactive
33	MEF2A	1	0	-1.4	3.2	inactive

Taken from above:
For “mean protection from cisplatin (shift in death) (%)”, GABBR2 has 1.5
MEF2A, outcome → inactive
Result of RUNX2 under “two-siRNA summed score (-2 to +2)”: 0
Under “mean protection from cisplatin (shift in death) (%)”, SORD shows -12.8
Value for WFDC8 in “protection from cisplatin (shift in death), siRNA C (%)”: -0.8

The listing continues:
no.	gene	reagent	two-siRNA summed score (-2 to +2)	mean protection from cisplatin (shift in death) (%)	protection from cisplatin (shift in death), siRNA C (%)	outcome
34	HIP1R	1	0	12.1	17.3	inactive
35	WDFY3-AS2	1	0	10	7.9	inactive
36	ISYNA1	1	0	3	18.8	inactive
37	ISYNA1	2	0	8.1	12.6	inactive
38	NUP37	1	0	10.3	6	inactive
39	DUSP18	1	0	3	10.6	inactive
40	DENND10	1	0	11.7	15.9	inactive
41	ERGIC3	1	0	2.9	1.5	inactive
42	DSG1	1	0	5.6	2.6	inactive
43	LOC391162	1	-1	1.8	-14.9	inactive
44	VIM	1	1	9.4	18	inactive
45	NDUFB4	1	0	1.9	-5.6	inactive
46	PTH	1	0	0	0.8	inactive
47	CEP152	1	0	1.4	6	inactive
48	TBC1D14	1	0	2.2	2.6	inactive
49	NFIC	1	0	10.4	4.9	inactive
50	THAP6	1	-1	-13.8	-7.6	inactive
51	SWI5	1	1	21.7	9.4	inactive
52	OR6V1	1	-1	-1.8	6	inactive
53	PLEKHB2	1	0	5.5	-0.3	inactive
54	MEA1	1	0	-14.9	-8.2	inactive
55	LOC440392	1	1	4.5	-4.8	inactive
56	PPP1R3C	1	1	10.9	-0.1	inactive
57	IL2RA	1	-1	-10.3	-22.4	inactive
58	PMEL	1	0	6.5	6.3	inactive
59	MGC40069 (retired record)	1	1	10.9	18.3	inactive
60	LOC441929	1	0	8.5	13.8	inactive
61	LOC442580	1	0	15.2	7.2	inactive
62	LONP1	1	0	6.3	8.9	inactive
63	PARL	1	0	1	6	inactive
64	IL17RE	1	0	9.3	14.2	inactive
65	ZNHIT6	1	0	-1.8	-6.3	inactive
66	RNF144B	1	0	-4.2	0.5	inactive
67	LOC402671	1	0	3.2	1.4	inactive
68	UCN2	1	1	16.2	9.7	inactive
69	SPOPL	1	0	3.6	-1.6	inactive
70	NEK8	1	0	5.9	12.5	inactive
71	LUC7L2	1	0	6	4.8	inactive
72	ACACA	1	1	9	10.7	inactive
73	IL11	1	-1	-15.2	-22.9	inactive
